The text below walks through data of PMC5642542.

In assay [1] the target is T1, Origin Recognition Complex subunit 2 (ORC2) (human (endogenous in U2OS)) (UniProt Q13416).
T1 sequence: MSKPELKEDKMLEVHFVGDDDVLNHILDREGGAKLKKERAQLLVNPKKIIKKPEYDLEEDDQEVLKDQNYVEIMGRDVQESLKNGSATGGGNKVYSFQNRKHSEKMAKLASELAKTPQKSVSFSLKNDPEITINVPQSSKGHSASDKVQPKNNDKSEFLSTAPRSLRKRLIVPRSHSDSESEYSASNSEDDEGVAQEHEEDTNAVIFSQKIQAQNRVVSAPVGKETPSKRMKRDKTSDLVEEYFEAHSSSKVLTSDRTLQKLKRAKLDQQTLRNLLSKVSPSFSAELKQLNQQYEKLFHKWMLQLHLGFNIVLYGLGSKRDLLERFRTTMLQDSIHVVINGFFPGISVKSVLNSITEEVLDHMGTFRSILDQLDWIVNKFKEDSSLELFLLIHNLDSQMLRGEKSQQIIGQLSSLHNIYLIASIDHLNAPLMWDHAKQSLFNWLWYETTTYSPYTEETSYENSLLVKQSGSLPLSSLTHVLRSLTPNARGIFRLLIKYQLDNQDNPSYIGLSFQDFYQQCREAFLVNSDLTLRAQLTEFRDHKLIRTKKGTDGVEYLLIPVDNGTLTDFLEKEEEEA
Nature of the assay: co-IP; U2OS cells treated with nocodazole for 24 hours; immunoprecipitation with ORC2 antibody, blotted with ORC2 or PIAS4 antibody.

Assay [2] addresses T1, Origin Recognition Complex subunit 2 (ORC2) (human (endogenous in U2OS)). Nature of the assay: condition: only after release from nocodazole arrest into fresh medium; co-IP; U2OS cells treated with nocodazole for 24 hours, then released into fresh medium for indicated times; immunoprecipitation with ORC2 antibody, blotted with ORC2, PIAS4 or SENP2 antibody.
Assay [3] has the same target. As to the kind of experiment: co-IP; U2OS cells treated with nocodazole for 24 hours, then released into fresh medium for indicated times; immunoprecipitation with ORC2 antibody, blotted with ORC2, PIAS4 or SENP2 antibody.

Results are given in words; binding and its absence hold for the method and conditions named. In cells and extracts the contact can be indirect. Some binding calls cover weakened binding; strength is not graded here.

B1: SUMO E3 ligase PIAS4 (enzyme, UniProt Q8N2W9 1-510)
chain: MAAELVEAKNMVMSFRVSDLQMLLGFVGRSKSGLKHELVTRALQLVQFDCSPELFKKIKELYETRYAKKNSEPAPQPHRPLDPLTMHSTYDRAGAVPRTPLAGPNIDYPVLYGKYLNGLGRLPAKTLKPEVRLVKLPFFNMLDELLKPTELVPQNNEKLQESPCIFALTPRQVELIRNSRELQPGVKAVQVVLRICYSDTSCPQEDQYPPNIAVKVNHSYCSVPGYYPSNKPGVEPKRPCRPINLTHLMYLSSATNRITVTWGNYGKSYSVALYLVRQLTSSELLQRLKTIGVKHPELCKALVKEKLRLDPDSEIATTGVRVSLICPLVKMRLSVPCRAETCAHLQCFDAVFYLQMNEKKPTWMCPVCDKPAPYDQLIIDGLLSKILSECEDADEIEYLVDGSWCPIRAEKERSCSPQGAILVLGPSDANGLLPAPSVNGSGALGSTGGGGPVGSMENGKPGADVVDLTLDSSSSSEDEEEEEEEEEDEDEEGPRPKRRCPFQKGLVPAC
As for B1, the binding result is “binds” in assay [1] and “no binding” in assay [2].

B2: De-SUMOylase SENP2 (enzyme, UniProt Q9HC62 1-589)
chain: MYRWLVRILGTIFRFCDRSVPPARALLKRRRSDSTLFSTVDTDEIPAKRPRLDCFIHQVKNSLYNAASLFGFPFQLTTKPMVTSACNGTRNVAPSGEVFSNSSSCELTGSGSWNNMLKLGNKSPNGISDYPKIRVTVTRDQPRRVLPSFGFTLNSEGCNRRPGGRRHSKGNPESSLMWKPQEQAVTEMISEESGKGLRRPHCTVEEGVQKEEREKYRKLLERLKESGHGNSVCPVTSNYHSSQRSQMDTLKTKGWGEEQNHGVKTTQFVPKQYRLVETRGPLCSLRSEKRCSKGKITDTETMVGIRFENESRRGYQLEPDLSEEVSARLRLGSGSNGLLRRKVSIIETKEKNCSGKERDRRTDDLLELTEDMEKEISNALGHGPQDEILSSAFKLRITRGDIQTLKNYHWLNDEVINFYMNLLVERNKKQGYPALHVFSTFFYPKLKSGGYQAVKRWTKGVNLFEQEIILVPIHRKVHWSLVVIDLRKKCLKYLDSMGQKGHRICEILLQYLQDESKTKRNSDLNLLEWTHHSMKPHEIPQQLNGSDCGMFTCKYADYISRDKPITFTQHQMPLFRKKMVWEILHQQLL
In the case of B2, in assay [3], the binding result is listed as “binds”.
